The source of these data is patent US20110086042A1.

The chains behind the UniProt entries cited, without tags or fusion partners.
UniProt P23258: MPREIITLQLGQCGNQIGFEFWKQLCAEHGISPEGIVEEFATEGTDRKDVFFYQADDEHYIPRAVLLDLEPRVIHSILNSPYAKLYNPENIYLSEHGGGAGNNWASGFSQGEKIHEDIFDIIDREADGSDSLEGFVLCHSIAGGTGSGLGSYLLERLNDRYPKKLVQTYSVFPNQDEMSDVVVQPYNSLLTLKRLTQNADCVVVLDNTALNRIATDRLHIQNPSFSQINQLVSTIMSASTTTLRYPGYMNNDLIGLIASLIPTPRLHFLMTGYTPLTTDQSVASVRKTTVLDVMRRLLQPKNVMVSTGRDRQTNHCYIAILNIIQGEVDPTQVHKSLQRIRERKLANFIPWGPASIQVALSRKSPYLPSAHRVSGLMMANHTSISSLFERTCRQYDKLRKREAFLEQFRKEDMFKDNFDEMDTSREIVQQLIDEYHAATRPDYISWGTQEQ

For assay [1], the target named is T1, BRCA2 C-terminal 1026 residues (yeast two-hybrid bait from pGBKT7-BRCA2-C3) (UniProt P51587).
T1 sequence (looked up): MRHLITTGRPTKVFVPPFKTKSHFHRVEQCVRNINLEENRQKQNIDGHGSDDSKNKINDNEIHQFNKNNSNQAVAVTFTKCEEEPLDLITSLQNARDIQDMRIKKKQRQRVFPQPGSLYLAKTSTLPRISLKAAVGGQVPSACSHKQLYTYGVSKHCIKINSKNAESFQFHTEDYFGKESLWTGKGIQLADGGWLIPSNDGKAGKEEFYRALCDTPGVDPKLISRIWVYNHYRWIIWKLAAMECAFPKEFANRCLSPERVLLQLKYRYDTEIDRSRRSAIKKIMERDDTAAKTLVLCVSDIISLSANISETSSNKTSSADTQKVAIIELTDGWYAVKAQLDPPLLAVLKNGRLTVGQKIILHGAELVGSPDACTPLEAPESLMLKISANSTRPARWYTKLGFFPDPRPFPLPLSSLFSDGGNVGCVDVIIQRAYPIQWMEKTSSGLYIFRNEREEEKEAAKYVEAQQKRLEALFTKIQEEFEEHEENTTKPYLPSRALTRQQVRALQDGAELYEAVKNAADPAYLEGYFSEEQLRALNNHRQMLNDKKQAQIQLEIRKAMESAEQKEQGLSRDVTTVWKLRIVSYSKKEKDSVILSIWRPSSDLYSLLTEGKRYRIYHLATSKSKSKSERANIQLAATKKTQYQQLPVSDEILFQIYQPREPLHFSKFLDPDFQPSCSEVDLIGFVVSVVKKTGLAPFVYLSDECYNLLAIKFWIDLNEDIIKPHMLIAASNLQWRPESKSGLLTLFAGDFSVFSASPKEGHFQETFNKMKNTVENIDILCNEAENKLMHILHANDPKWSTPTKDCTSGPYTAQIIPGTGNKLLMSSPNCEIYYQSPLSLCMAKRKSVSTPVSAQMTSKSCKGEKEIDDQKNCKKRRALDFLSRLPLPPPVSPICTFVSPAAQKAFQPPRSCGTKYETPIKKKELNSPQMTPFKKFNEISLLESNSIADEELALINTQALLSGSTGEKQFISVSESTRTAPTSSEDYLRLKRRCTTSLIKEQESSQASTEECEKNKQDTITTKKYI
Nature of the assay: yeast two-hybrid screen.

For the next assay, the target named is γ-tubulin (UniProt P23258). Nature of the assay: co-localisation in rod-like structures of cells that overexpress full-length centrobin.

No constants are given. Whether binding was seen depends on the method and setting. Some entries that bind do so weakly or less than the wild type.

B1: centrobin-C (C-terminal 539 amino acids of centrobin, yeast two-hybrid clones) (protein)
chain: QEHQLKEHYQALQEESQAQLEREKEKSQREAQAAWETQHQLALVQSEVRRLEGELDTARRERDALQLEMSLVQARYESQRIQLESELAVQLEQRVTERLAQAQESSLRQAASLREHHRKQLQDLSGQHQQELASQLAQFKVEMAEREERQQQVAEDYELRLAREQARVCELQSGNQQLEEQRVELVERLQAMLQAHWDEANQLLSTTLPPPNPPAPPAGPSSPGPQEPEKEERRVWTMPPMAVALKPVLQQSREARDELPGAPPVLCSSSSDLSLLLGPSFQSQHSFQPLEPKPDLTSSTAGAFSALGAFHPDHRAERPFPEEDPGPDGEGLLKQGLPPAQLEGLKNFLHQLLETVPQNNENPSVDLLPPKSGPLTVPSWEEAPQVPRIPPPVHKTKVPLAMASSLFRVPEPPSSHSQGSGPSSGSPERGGDGLTFPRQLMEVSQLLRLYQARGWGALPAEDLLLYLKRLEHSGTDGRGDNVPRRNTDSRLGEIPRKEIPSQAVPRRLATAPKTEKPPARKKSGHPAPSSMRSRGGVWR
On to B1, for which the binding entry in assay [1] is reported as “binds”.

B2: centrobin α (full-length, 903 amino acids) (protein)
chain: MATSADSPSSPLGAEDLLSDSSEPPGLNQVSSEVTSQLYASLRLSRQAEATARAQLYLPSTSPPHEGLDGFAQELSRSLSVGLEKNLKKKDGSKHIFEMESVRGQLQTMLQTSRDTAYRDPLIPGAGSERREEDSFDSDSTATLLNTRPLQDLSPSSSAQALEELFPRYTSLRPGPPLNPPDFQGLRDALDSEHTRRKHCERHIQSLQTRVLELQQQLAVAVAADRKKDTMIEQLDKTLARVVEGWNRHEAERTEVLRGLQEEHQAAELTRSKQQETVTRLEQSLSEAMEALNREQESARLQQRERETLEEERQALTLRLEAEQQRCCVLQEERDAARAGQLSEHRELETLRAALEEERQTWAQQEHQLKEHYQALQEESQAQLEREKEKSQREAQAAWETQHQLALVQSEVRRLEGELDTARRERDALQLEMSLVQARYESQRIQLESELAVQLEQRVTERLAQAQESSLRQAASLREHHRKQLQDLSGQHQQELASQLAQFKVEMAEREERQQQVAEDYELRLAREQARVCELQSGNQQLEEQRVELVERLQAMLQAHWDEANQLLSTTLPPPNPPAPPAGPSSPGPQEPEKEERRVWTMPPMAVALKPVLQQSREARDELPGAPPVLCSSSSDLSLLLGPSFQSQHSFQPLEPKPDLTSSTAGAFSALGAFHPDHRAERPFPEEDPGPDGEGLLKQGLPPAQLEGLKNFLHQLLETVPQNNENPSVDLLPPKSGPLTVPSWEEAPQVPRIPPPVHKTKVPLAMASSLFRVPEPPSSHSQGSGPSSGSPERGGDGLTFPRQLMEVSQLLRLYQARGWGALPAEDLLLYLKRLEHSGTDGRGDNVPRRNTDSRLGEIPRKEIPSQAVPRRLATAPKTEKPPARKKSGHPAPSSMRSRGGVWR
On to B2, for which, in the assay with γ-tubulin, the binding entry is on record as “binds”.
